The results in this text go back to the supplement of paper PMC12823440, “Inhibitors supercharge kinase turnover through native proteolytic circuits” (Nature, 2025).

Chains of the proteins cited; added tags and fusions are not shown. Lines headed by an entry give the natural chain unless they say otherwise; changes in a name come on top.
UniProt P23458: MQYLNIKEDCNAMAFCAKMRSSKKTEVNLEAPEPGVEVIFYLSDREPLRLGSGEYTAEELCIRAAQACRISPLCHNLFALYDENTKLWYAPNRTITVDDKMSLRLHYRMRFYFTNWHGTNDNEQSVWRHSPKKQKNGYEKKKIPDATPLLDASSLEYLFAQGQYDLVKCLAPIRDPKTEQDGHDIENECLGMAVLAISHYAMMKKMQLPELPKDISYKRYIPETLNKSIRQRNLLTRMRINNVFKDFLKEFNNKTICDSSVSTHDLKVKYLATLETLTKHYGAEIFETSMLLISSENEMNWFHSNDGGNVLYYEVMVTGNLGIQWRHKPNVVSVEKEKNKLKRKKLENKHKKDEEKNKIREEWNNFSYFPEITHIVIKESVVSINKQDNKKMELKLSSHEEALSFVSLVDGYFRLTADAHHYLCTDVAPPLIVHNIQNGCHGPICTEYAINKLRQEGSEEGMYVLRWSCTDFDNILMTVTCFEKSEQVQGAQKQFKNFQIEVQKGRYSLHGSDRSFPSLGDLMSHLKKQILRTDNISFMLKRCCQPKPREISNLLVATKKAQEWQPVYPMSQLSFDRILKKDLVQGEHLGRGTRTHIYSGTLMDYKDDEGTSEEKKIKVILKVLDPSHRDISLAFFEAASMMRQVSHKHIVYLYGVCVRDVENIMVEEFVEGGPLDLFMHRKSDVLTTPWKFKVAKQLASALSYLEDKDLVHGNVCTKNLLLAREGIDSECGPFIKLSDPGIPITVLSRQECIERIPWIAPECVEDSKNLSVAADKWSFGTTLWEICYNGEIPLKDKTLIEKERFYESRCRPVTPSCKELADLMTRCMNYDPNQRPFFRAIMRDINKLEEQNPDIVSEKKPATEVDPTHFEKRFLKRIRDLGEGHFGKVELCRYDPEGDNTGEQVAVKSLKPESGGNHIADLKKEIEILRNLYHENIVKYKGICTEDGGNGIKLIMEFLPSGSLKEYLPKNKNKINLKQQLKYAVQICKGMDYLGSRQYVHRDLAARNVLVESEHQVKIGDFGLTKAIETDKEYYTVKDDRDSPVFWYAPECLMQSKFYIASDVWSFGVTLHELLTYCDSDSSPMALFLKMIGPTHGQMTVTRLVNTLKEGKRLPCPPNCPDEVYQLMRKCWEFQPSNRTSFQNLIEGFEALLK

Where a name gives a salt, the structure may show the parent alone. The list shows a part of the results. Hit calls seldom repeat between salt and free forms of one compound.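 Kinases, fused to nanoluciferase, were expressed in K562 cells; luminescence was measured every 4 h from 2 to 18 h as percent of control (DMSO = 100%, positive control = 0%). A time point is decreased if signal falls significantly (2 sigma). Hits were called by the authors by a rule that is not shown; the count of time points alone does not decide it.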

The experiment addresses JAK1 (UniProt P23458). Description: number of time points (of 5) at which kinase-Nluc abundance scored as decreased, DMSO-normalised (count); higher = more persistent destabilization. The settings on record: K562; 2-18 h.
With `CCc1c(C(=O)NNC(=O)C(O)c2cc(F)cc(F)c2)ccc(O)c1C` (stereo not drawn) (10 µM), the “number of time points” value amounted to 0.

On to `COc1cc2ncnc(Nc3ccc(Cl)cc3F)c2cc1OC` (10 µM), for which the “number of time points” value was 0.

For `COc1cc(/C=C/C(=O)NCC(O)c2ccc(O)cc2)ccc1O` (stereo not drawn) [N-Feruloyloctopamine] (2.5 µM), the “number of time points” value was 0.

`NC(=O)c1nc(Nc2ccccc2)sc1NC(=O)C1CCCCC1` (10 µM): the “number of time points” value came to 0.

Regarding `O=c1cc(CN2CCOCC2)occ1OCCCCCSc1ccnc2cc(C(F)(F)F)ccc12` (10 µM), the “number of time points” value stood at 0.

In the case of `O=C(O)CCC(=O)Nc1ccc(Br)cn1` [Bikinin] (10 µM), the “number of time points” value came to 0.

Turning to `CC[C@@H](Oc1nc(Oc2cc(C)cc(-c3cccc(CN)c3)c2)c(F)cc1F)C(=O)O` (10 µM), the “number of time points” value was 0.

Turning to `C[C@]1(O)CCN(c2nc(N3C[C@H](O)[C@@H](O)C3)cc(C(F)(F)F)c2C#N)C1` (10 µM), the “number of time points” value stood at 0.

Take `COc1ccccc1-c1cc(Nc2cccc(CS(N)(=O)=O)c2)ncn1` (10 µM): the “number of time points” value came to 3.

For the compound `CC(=O)c1c(C)cc2cccc(O)c2c1O` [Nepodin] (10 µM), the “number of time points” value stood at 0.

As to `NC(=O)c1ccc2[nH]ccc2c1` (10 µM), the “number of time points” value turned out to be 0.

Turning to `COc1cc2c(cc1OC)CN(S(=O)(=O)c1ccc(OC)c(N3CCN(C(=O)c4ccc(F)cc4C(F)(F)F)CC3)c1)CC2` (10 µM), the “number of time points” value amounted to 0.

For the compound `OCCn1cc(-c2ccc3c(c2)CC/C3=N\O)c(-c2ccncc2)n1` (10 µM), the “number of time points” value amounted to 0.

Regarding `C[C@@H]1CC[C@@H](Nc2nc(NC(C)(C)C)ncc2C(N)=O)C[C@H]1O` (10 µM), the “number of time points” value came out at 0.

As for `CCc1cc2c(cc1N1CCC(N3CCOCC3)CC1)C(C)(C)c1[nH]c3cc(C#N)ccc3c1C2=O` [Alectinib] (10 µM), the “number of time points” value is 0.

As for `COCCNc1nc2ccc(C#CC3(O)CCCCC3)cc2n1-c1ccnc(N)n1` (10 µM), the “number of time points” value was found to be 0.

Turning to `Cc1[nH]c(/C=C2\C(=O)Nc3ccccc32)c(C)c1CCC(=O)O` [Orantinib] (10 µM), the “number of time points” value was determined as 0.

In the case of `Nc1cc(C(F)(F)F)c(-c2cc(N3CCOCC3)nc(N3CCOCC3)n2)cn1` [Buparlisib (Hydrochloride)] (2.5 µM), the “number of time points” value turned out to be 3.

For `CCN1CCN(Cc2ccc(Nc3ncc(F)c(-c4cc(F)c5nc(C)n(C(C)C)c5c4)n3)nc2)CC1` [Abemaciclib (methanesulfonate)] (10 µM), the “number of time points” value is 4.

Take `Cc1ccc2cc(-c3c(C)ccc(C(=O)c4c(-c5ccccc5)n(C)n(-c5ccccc5)c4=O)c3N)ccc2n1` (2.5 µM): the “number of time points” value stood at 0.

Consider `FC(F)(c1ccc2ncccc2c1)c1nnc2ccc(-c3ccncc3)nn12` (10 µM), for which the “number of time points” value was found to be 0.

For `O=C1N[C@@H](Cc2c[nH]c3ccccc23)C(=O)N2CCC[C@@H]12` [Brevianamide F] (10 µM), the “number of time points” value is 0.

`Cc1nc2sccn2c(=O)c1CCN1CCC(=C(c2ccccc2)c2ccc(F)cc2)CC1` (10 µM): the “number of time points” value worked out at 0.

Turning to `O=c1[nH]c(=O)n([C@@H]2O[C@H](CO)[C@@H](O)[C@@H]2O)cc1/C=C/Br` [Sorivudine] (10 µM), the “number of time points” value is 0.

On to `COc1cc2nccc(Oc3ccc(NC(=O)NC4CC4)c(Cl)c3)c2cc1C(N)=O` [Lenvatinib (mesylate)] (10 µM), for which the “number of time points” value was found to be 3.

Turning to `CN1C(=O)N[C@H](Cc2c[nH]c3c(Cl)cccc23)C1=O` [Necrostatin 2] (10 µM), the “number of time points” value came to 0.

On to `CCN1CCN(Cc2ccc(Nc3ncc(F)c(-c4cc(F)c5nc(C)n(C(C)C)c5c4)n3)nc2)CC1` [Abemaciclib] (2 µM), for which the “number of time points” value is 0.

For the compound `Cc1ccc2nc(NCCN)c3ncc(C)n3c2c1` (2.5 µM), the “number of time points” value was 0.

For the compound `CNC(=O)c1c(F)cccc1Nc1nc(Nc2cc3c(cc2OC)CCN3C(=O)CN(C)C)nc2[nH]ccc12` (10 µM), the “number of time points” value came to 0.

With `Cn1nccc1Nc1nccc(-c2ccn([C@H](CO)c3ccc(Cl)c(F)c3)c(=O)c2)n1` [Ravoxertinib hydrochloride] (10 µM), the “number of time points” value stood at 0.

With `CN(C)CCSSCCNC(=O)C1CCN(C(=O)CSc2ccc(Cl)cc2)CC1` (10 µM), the “number of time points” value is 0.

With `CNC(=O)c1cc(COc2nnc(Nc3ccc(Cl)cc3)c3ccoc23)ccn1` [Telatinib] (10 µM), the “number of time points” value turned out to be 0.

Turning to `NCCNS(=O)(=O)c1cccc2c(Cl)cccc12` [A-3 (hydrochloride)] (10 µM), the “number of time points” value was 0.

For `O=C(Nc1ccc(CN2CCOCC2)cc1)c1ccc(-c2cccc(Cl)c2)o1` (10 µM), the “number of time points” value was determined as 0.

`CCN1CCN(Cc2ccc(-c3cc4c(N[C@H](C)c5ccccc5)ncnc4[nH]3)cc2)CC1` (2.5 µM): the “number of time points” value was 1.

Consider `COc1cccc(OC)c1C(=O)OCc1cc(O)ccc1O[C@@H]1O[C@H](CO)[C@@H](O)[C@H](O)[C@H]1O` [Curculigoside] (10 µM), for which the “number of time points” value stood at 0.

`Nc1ncnc2c1c(-c1ccc(Oc3ccccc3)cc1)nn2C1CCCC1` (2.5 µM): the “number of time points” value was 0.

With `CC#CC(=O)N1CC[C@@H](n2c(=O)n(-c3ccc(Oc4ccccc4)cc3)c3c(N)ncnc32)C1` [Tirabrutinib] (10 µM), the “number of time points” value is 0.
